The text below walks through data of patent publication US20030096760A1 (SmithKlineBeecham Corporation, priority 1997, published 2003).

This data set in a line: general procedure: Fmoc solid-phase peptide synthesis; Rink Amide resin (Nova, 0.3 mmol/g, PS/1% DVB, 100-200 mesh); HBTU/N-methyl morpholine in DMF. To be noted: late stage modification step.

In turn, “(S)-alpha-(acetylamino)-1,3-dihydro-3-hydroxy-1-oxo-5-isobenzofuranpropanamido-glutamate-glutamate-isoleucine-glutamate-amine” registered a step yield of 64%.
